The text below walks through data of paper PMC7941204.

Results are given in words; binding and its absence hold for the method and conditions named. Binding calls can cover weak binding; strength is not graded here.

The target in test [1] is T1, Ce RAD-51 (C. elegans) (UniProt Q95Q25).
T1 sequence: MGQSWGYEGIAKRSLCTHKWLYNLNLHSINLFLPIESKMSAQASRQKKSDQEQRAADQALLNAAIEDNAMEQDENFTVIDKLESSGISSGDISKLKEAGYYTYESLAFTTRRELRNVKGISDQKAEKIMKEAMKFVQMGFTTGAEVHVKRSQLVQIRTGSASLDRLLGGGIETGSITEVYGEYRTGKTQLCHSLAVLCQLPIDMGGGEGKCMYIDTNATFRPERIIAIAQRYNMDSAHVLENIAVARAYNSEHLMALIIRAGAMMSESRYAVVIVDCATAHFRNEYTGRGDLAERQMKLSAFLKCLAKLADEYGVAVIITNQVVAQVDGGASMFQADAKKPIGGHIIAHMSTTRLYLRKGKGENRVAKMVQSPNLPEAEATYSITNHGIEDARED
The test is described as follows: native gel or EMSA; bulk EMSA, super-shift of RAD-51-ssDNA; 60 nM (nucleotides) 5'-32P 60-mer, 20 mM Tris-HCl pH 7.5, 50 mM sodium acetate, 2 mM MgCl2, 2 mM ATP, 25 C, cross-linked with 0.25% glutaraldehyde, 1% agarose gel; both purified. (In general: In EMSA bound probe runs differently from free probe, usually more slowly.)

Test [2] has as its target T2, RAD-51 (yeast two-hybrid construct) (C. elegans) (UniProt Q95Q25).
T2 sequence: T1 sequence
Put plainly: two-hybrid; S. cerevisiae MaV103; selection on medium lacking leucine, tryptophan and histidine with 100 mM 3-AT; as described previously (Taylor et al., 2015).

With “Ce RFS-1 K56R/RIP-1-3xFLAG (C. elegans) (complex)”, the binding result in test [1] is “binds”. Regarding “RFS-1 K56A/RIP-1 mutant (yeast two-hybrid constructs) (C. elegans) (complex)”, the binding entry in test [2] is recorded as “binds”. On to “Ce RFS-1 K56A/RIP-1-3xFLAG (C. elegans) (complex)”, for which the binding result in test [1] was “binds”.
